Assay results from the supplement of paper PMC12819154, “High-throughput peptide-centric local stability assay extends protein–ligand identification to membrane proteins, tissues and bacteria” (Nature Structural & Molecular Biology, 2025).
Some of the results follow. Small differences around the control level are noise.

Amino acid sequences for entries named in this document (tags omitted). A change or cut given only in a name is not applied to a line headed by its entry.
UniProt Q8N782: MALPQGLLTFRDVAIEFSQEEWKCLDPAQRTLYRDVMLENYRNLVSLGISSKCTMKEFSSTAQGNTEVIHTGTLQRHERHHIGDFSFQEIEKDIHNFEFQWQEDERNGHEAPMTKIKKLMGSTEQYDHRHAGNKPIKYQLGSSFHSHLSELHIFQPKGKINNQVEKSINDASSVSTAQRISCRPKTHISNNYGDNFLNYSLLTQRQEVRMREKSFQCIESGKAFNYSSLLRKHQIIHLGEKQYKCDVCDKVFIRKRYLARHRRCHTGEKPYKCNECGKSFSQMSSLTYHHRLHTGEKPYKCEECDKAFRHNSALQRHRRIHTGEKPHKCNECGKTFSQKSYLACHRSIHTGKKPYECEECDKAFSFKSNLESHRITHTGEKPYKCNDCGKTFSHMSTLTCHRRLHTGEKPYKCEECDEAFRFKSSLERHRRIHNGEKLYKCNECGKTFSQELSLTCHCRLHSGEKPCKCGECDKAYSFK
UniProt Q8N201, whole entry: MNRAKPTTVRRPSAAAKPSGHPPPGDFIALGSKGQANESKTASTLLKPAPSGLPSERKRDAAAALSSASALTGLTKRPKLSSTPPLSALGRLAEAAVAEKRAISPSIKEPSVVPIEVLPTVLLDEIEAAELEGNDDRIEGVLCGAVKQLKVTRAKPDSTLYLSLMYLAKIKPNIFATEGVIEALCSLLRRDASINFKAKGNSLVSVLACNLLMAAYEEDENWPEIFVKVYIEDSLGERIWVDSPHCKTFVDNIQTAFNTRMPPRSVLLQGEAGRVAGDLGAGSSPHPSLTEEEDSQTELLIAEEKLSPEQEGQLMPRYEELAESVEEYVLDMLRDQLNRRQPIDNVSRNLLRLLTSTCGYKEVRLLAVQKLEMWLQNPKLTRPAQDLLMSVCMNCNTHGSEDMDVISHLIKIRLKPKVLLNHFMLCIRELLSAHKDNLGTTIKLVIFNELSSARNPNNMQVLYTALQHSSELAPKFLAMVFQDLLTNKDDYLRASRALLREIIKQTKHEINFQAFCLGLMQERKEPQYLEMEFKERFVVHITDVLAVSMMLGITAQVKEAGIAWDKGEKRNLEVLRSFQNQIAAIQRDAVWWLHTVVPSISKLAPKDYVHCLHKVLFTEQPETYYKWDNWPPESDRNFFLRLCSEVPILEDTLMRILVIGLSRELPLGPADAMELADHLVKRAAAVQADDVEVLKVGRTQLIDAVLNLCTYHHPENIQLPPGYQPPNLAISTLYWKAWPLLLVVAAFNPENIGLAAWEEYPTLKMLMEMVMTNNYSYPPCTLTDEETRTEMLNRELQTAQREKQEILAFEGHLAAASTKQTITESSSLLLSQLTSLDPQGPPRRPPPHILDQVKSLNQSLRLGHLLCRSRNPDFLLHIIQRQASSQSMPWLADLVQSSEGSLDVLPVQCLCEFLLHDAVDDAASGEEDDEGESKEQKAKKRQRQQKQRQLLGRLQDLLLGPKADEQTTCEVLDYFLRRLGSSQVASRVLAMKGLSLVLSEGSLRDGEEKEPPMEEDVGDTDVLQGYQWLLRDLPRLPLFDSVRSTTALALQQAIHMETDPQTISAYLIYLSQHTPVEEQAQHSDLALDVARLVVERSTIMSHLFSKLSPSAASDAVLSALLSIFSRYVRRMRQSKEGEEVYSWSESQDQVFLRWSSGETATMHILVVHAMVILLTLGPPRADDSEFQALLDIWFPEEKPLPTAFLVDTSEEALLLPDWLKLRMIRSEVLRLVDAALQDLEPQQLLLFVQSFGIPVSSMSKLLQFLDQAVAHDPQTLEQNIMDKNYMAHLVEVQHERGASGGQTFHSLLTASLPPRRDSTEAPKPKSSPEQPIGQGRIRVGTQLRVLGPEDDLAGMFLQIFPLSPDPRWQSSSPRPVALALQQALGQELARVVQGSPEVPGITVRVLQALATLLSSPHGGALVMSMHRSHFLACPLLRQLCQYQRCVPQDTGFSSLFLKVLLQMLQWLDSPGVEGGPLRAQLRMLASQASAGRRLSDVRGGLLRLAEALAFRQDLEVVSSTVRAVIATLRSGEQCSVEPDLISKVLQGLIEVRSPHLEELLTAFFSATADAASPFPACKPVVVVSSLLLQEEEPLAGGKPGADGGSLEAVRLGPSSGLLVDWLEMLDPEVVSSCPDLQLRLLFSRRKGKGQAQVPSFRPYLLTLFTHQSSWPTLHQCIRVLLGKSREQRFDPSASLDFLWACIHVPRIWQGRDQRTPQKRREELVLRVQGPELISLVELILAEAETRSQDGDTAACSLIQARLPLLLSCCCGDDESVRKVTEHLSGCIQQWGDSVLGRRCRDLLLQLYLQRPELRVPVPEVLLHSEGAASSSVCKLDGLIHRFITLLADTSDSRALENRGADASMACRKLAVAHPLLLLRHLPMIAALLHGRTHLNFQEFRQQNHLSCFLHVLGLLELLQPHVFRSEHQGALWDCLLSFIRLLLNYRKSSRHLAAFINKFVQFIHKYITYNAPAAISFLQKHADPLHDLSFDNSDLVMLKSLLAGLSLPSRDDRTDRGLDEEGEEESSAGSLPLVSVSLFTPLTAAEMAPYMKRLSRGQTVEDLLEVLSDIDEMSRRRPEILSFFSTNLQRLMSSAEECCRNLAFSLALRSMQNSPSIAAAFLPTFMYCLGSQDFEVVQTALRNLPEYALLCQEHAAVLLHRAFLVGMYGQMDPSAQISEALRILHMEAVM
UniProt Q8N5C6: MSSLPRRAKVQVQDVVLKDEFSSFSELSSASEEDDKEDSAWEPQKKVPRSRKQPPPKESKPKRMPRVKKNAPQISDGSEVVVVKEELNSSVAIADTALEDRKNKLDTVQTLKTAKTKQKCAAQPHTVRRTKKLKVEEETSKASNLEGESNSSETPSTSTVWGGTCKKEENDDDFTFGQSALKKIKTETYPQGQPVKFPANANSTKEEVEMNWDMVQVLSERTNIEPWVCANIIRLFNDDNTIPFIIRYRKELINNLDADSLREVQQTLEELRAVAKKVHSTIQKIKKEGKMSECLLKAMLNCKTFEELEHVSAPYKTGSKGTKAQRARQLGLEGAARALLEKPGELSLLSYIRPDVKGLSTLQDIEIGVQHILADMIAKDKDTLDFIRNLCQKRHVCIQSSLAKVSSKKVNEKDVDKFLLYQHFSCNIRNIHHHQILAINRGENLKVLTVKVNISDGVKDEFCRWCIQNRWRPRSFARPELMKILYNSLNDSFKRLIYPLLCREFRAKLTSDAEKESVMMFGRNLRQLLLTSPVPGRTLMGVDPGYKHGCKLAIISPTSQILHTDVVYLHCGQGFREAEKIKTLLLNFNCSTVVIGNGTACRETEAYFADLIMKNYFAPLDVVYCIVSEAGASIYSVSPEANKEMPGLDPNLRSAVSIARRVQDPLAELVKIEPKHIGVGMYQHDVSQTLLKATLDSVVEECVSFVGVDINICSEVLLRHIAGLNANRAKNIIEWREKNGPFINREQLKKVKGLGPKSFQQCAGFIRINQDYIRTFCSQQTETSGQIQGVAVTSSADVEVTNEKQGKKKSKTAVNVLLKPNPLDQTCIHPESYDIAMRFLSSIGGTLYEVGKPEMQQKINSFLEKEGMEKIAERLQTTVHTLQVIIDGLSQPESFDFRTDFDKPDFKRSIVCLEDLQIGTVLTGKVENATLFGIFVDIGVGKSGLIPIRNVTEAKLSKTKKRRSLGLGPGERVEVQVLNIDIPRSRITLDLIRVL
UniProt Q8NAV1: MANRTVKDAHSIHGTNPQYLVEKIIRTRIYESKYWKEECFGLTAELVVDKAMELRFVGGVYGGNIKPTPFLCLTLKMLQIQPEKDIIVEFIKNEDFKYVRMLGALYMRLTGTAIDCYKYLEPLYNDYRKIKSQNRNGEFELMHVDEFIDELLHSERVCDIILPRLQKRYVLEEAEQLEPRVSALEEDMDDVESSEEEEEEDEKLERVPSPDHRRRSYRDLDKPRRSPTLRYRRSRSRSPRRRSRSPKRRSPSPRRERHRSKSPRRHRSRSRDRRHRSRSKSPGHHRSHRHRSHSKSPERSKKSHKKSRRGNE
UniProt Q8N488: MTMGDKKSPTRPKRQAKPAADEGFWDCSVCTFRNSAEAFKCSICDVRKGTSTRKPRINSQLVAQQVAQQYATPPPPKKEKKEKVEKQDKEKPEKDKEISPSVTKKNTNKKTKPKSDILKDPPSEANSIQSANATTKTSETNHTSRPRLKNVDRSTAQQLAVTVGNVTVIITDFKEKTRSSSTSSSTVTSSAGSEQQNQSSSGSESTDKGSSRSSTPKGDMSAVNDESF
UniProt Q8NEY1: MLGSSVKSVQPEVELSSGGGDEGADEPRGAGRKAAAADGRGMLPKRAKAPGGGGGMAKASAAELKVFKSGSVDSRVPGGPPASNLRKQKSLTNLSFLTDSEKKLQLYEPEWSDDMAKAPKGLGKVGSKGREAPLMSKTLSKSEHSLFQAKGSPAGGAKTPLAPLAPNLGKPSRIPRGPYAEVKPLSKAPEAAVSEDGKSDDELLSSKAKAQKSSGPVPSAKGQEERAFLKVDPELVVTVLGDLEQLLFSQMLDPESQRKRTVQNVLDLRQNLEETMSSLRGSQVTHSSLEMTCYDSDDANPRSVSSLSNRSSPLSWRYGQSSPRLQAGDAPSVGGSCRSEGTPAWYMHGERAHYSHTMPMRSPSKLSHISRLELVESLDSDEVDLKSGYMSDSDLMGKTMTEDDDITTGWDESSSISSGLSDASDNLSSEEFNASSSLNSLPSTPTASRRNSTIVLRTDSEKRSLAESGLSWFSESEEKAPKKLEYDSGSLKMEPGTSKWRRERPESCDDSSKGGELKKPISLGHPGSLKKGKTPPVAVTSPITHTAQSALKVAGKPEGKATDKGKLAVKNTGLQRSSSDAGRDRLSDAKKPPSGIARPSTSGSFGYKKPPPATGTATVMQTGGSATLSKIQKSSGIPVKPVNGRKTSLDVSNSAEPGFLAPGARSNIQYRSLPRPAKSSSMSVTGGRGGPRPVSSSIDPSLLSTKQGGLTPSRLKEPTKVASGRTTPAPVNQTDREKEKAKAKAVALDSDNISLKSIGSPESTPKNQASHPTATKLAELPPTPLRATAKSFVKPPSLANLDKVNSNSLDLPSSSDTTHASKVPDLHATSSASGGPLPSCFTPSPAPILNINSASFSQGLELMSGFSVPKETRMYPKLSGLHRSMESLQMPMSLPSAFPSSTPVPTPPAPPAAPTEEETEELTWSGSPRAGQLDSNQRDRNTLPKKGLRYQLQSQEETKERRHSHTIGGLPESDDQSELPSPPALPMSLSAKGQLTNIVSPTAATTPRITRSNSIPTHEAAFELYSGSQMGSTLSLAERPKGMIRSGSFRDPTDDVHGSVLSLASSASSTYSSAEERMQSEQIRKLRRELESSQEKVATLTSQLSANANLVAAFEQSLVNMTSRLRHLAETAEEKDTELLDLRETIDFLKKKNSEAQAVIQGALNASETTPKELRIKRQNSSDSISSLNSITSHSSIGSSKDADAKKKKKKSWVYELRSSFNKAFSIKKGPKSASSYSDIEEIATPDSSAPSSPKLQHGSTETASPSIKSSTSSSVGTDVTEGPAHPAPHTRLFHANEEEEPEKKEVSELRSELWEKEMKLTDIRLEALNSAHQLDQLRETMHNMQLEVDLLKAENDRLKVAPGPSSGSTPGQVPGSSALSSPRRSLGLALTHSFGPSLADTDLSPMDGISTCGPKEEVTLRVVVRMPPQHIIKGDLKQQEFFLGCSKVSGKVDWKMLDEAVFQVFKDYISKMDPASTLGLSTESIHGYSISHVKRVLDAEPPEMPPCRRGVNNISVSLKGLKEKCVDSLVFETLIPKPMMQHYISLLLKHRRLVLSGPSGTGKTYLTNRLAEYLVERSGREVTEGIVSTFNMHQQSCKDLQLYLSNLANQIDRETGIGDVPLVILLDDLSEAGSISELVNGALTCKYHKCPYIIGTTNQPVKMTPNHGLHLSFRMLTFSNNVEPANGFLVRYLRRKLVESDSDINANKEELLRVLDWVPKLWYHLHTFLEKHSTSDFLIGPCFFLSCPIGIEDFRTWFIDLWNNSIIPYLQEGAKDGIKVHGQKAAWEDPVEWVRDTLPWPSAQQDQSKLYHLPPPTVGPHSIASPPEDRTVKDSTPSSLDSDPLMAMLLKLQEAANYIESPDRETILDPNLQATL
UniProt Q8NB16: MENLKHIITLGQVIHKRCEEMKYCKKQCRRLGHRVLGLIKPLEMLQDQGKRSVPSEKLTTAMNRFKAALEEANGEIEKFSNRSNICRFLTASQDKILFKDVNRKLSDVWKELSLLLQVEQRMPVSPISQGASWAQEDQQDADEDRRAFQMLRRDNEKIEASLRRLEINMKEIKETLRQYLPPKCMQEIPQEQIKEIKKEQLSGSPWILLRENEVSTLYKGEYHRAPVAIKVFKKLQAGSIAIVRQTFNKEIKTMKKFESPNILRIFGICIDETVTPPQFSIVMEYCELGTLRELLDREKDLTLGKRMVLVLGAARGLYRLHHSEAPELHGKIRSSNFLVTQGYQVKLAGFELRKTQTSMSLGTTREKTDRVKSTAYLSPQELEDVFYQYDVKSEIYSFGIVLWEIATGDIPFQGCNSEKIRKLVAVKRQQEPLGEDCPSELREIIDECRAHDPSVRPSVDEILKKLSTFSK

Each target was assayed with Cc1nc(Nc2ncc(C(=O)Nc3c(C)cccc3Cl)s2)cc(N2CCN(CCO)CC2)n1 [dasatinib] (assay: log2 fold change of tryptic peptide abundance, ligand vs vehicle (limited proteolysis) (log2 ratio); higher = more trypsin-susceptible (destabilized)). Settings: ligand concentration: 5 uM; sample: K562 cleared lysate.
Work on “CCDC71L (peptide sequence: DVYGYSSCR, peptide start residue: 97) (UniProt Q8N9Z2)” yielded a log2 fold change of -0.368. For “NUP43 (peptide sequence: TIDNADSSTLHAVTFLR, peptide start residue: 166) (UniProt Q8NFH3)”, the log2 fold change was -0.141. With “UniProt Q8N782 (peptide sequence: LMGSTEQYDHR, peptide start residue: 119)” the log2 fold change was 0.906. With “PAF1 (peptide sequence: FITYPFDQNR, peptide start residue: 48) (UniProt Q8N7H5)” the log2 fold change was -0.308. “CTCFL (peptide sequence: YQCPHCATIIAR, peptide start residue: 428) (UniProt Q8NI51)” showed a log2 fold change of -0.134. Work on “UniProt Q8NFP7 (peptide sequence: PVHAEYLEK, peptide start residue: 134)” yielded a log2 fold change of 0.436. Work on “TTC30B (peptide sequence: SLVEQLPSR, peptide start residue: 134) (UniProt Q8N4P2)” yielded a log2 fold change of 0.0286. “ZNF579 (peptide sequence: FWCPECGK, peptide start residue: 384) (UniProt Q8NAF0)” was tested, and the log2 fold change was 0.201. In the case of “ABCF1 (peptide sequence: KLSVPTSDEEDEVPAPKPR, peptide start residue: 103) (UniProt Q8NE71)”, the log2 fold change is reported as -0.547. Target “GTPBP8 (peptide sequence: IFDPSPEDIAR, peptide start residue: 70) (UniProt Q8N3Z3)” has a log2 fold change of 0.621. “UniProt Q8N7M2 (peptide sequence: HERVHTNEK, peptide start residue: 589)” was tested, and the log2 fold change was -0.694. “INTS1 (peptide sequence: ELLSAHKDNLGTTIK, peptide start residue: 429) (UniProt Q8N201)” gave a log2 fold change of -0.397. In the case of “STAG2 (peptide sequence: YVGWTMHDK, peptide start residue: 331) (UniProt Q8N3U4)”, the log2 fold change is reported as -0.329. Work on “CPEB3 (peptide sequence: TQPQPQQQQR, peptide start residue: 12) (UniProt Q8NE35)” yielded a log2 fold change of -0.349. “SRBD1 (peptide sequence: ILYNSLNDSFKR, peptide start residue: 484) (UniProt Q8N5C6)” showed a log2 fold change of -0.185. Target “UniProt Q8N2Z9 (peptide sequence: TTINTEDVK, peptide start residue: 75)” has a log2 fold change of -0.384. For “PRPF38A (peptide sequence: DAHSIHGTNPQYLVEK, peptide start residue: 8) (UniProt Q8NAV1)”, the log2 fold change was -0.25. For “CEP120 (peptide sequence: VAEYTILEGK, peptide start residue: 702) (UniProt Q8N960)”, the log2 fold change was 0.264. Target “MIER2 (peptide sequence: SERYDYFAQQTR, peptide start residue: 327) (UniProt Q8N344)” has a log2 fold change of 0.471. In the case of “UniProt Q8NEB9 (peptide sequence: NGLEPTKK, peptide start residue: 413)”, the log2 fold change is reported as 0.293. In the case of “RYBP (peptide sequence: DKEISPSVTK, peptide start residue: 95) (UniProt Q8N488)”, the log2 fold change is reported as 0.208. In the case of “ARFGAP1 (peptide sequence: KSPSSDSWTCADTSTERR, peptide start residue: 342) (UniProt Q8N6T3)”, the log2 fold change is reported as 0.117. In the case of “UniProt Q8N954 (peptide sequence: SLKEEEQERR, peptide start residue: 76)”, the log2 fold change is reported as 0.117. In the case of “WDSUB1 (peptide sequence: EAMENWISK, peptide start residue: 432) (UniProt Q8N9V3)”, the log2 fold change is reported as -0.199. Target “AVL9 (peptide sequence: GPVLHIVVVGFHHK, peptide start residue: 14) (UniProt Q8NBF6)” has a log2 fold change of 0.556. With “NAV1 (peptide sequence: TPLAPLAPNLGKPSRIPR, peptide start residue: 159) (UniProt Q8NEY1)” the log2 fold change was -0.484. “ARHGAP18 (peptide sequence: RYGQYTMNQESTTIK, peptide start residue: 40) (UniProt Q8N392)” showed a log2 fold change of 0.213. With “TRIM58 (peptide sequence: KELEDALTQEANVGK, peptide start residue: 152) (UniProt Q8NG06)” the log2 fold change was -0.97. Target “UniProt Q8NCP5 (peptide sequence: TLELPGPSETGRR, peptide start residue: 253)” has a log2 fold change of 0.215. Work on “MLKL (peptide sequence: ENEVSTLYK, peptide start residue: 211) (UniProt Q8NB16)” yielded a log2 fold change of 0.664. Target “UniProt Q8N594 (peptide sequence: SPSEPAHPEATTPGKR, peptide start residue: 214)” has a log2 fold change of 0.968. “ATPAF2 (peptide sequence: KLKTPQAK, peptide start residue: 70) (UniProt Q8N5M1)” was tested, and the log2 fold change was 0.153. Work on “METTL4 (peptide sequence: NADVNVLPIPDHK, peptide start residue: 395) (UniProt Q8N3J2)” yielded a log2 fold change of 0.321. “CMAS (peptide sequence: EVTEPLNLNPAK, peptide start residue: 189) (UniProt Q8NFW8)” showed a log2 fold change of -0.0535. Target “DYNC2H1 (peptide sequence: KAGEQSVLLK, peptide start residue: 2917) (UniProt Q8NCM8)” has a log2 fold change of -0.654. Work on “ZBTB2 (peptide sequence: SILLGSGDSEVTEPDHPVLASIKK, peptide start residue: 483) (UniProt Q8N680)” yielded a log2 fold change of 0.0814. “MRPL50 (peptide sequence: EKEPVVVETVEEK, peptide start residue: 33) (UniProt Q8N5N7)” was tested, and the log2 fold change was -0.191.
